Experimental data from paper PMC6109062, “The dual methyltransferase METTL13 targets N terminus and Lys55 of eEF1A and modulates codon-specific translation rates” (Nature Communications, 2018).
No constants are given. Whether binding was seen depends on the method and setting. Binding seen in cells or lysates may run through a third protein. These calls come from enrichment with a bait or labelling near it, and not all partners need be listed.

B1: CARS (enzyme, UniProt P49589 1-748)
chain: MADSSGQQGKGRRVQPQWSPPAGTQPCRLHLYNSLTRNKEVFIPQDGKKVTWYCCGPTVYDASHMGHARSYISFDILRRVLKDYFKFDVFYCMNITDIDDKIIKRARQNHLFEQYREKRPEAAQLLEDVQAALKPFSVKLNETTDPDKKQMLERIQHAVQLATEPLEKAVQSRLTGEEVNSCVEVLLEEAKDLLSDWLDSTLGCDVTDNSIFSKLPKFWEGDFHRDMEALNVLPPDVLTRVSEYVPEIVNFVQKIVDNGYGYVSNGSVYFDTAKFASSEKHSYGKLVPEAVGDQKALQEGEGDLSISADRLSEKRSPNDFALWKASKPGEPSWPCPWGKGRPGWHIECSAMAGTLLGASMDIHGGGFDLRFPHHDNELAQSEAYFENDCWVRYFLHTGHLTIAGCKMSKSLKNFITIKDALKKHSARQLRLAFLMHSWKDTLDYSSNTMESALQYEKFLNEFFLNVKDILRAPVDITGQFEKWGEEEAELNKNFYDKKTAIHKALCDNVDTRTVMEEMRALVSQCNLYMAARKAVRKRPNQALLENIALYLTHMLKIFGAVEEDSSLGFPVGGPGTSLSLEATVMPYLQVLSEFREGVRKIAREQKVPEILQLSDALRDNILPELGVRFEDHEGLPTVVKLVDRNTLLKEREEKRRVEEEKRKKKEEAARRKQEQEAAKLAKMKIPPSEMFLSETDKYSKFDENGLPTHDMEGKELSKGQAKKLKKLFEAQEKLYKEYLQMAQNGSFQ
B2: VARS (enzyme, UniProt P26640 1-1264)
chain: MSTLYVSPHPDAFPSLRALIAARYGEAGEGPGWGGAHPRICLQPPPTSRTPFPPPRLPALEQGPGGLWVWGATAVAQLLWPAGLGGPGGSRAAVLVQQWVSYADTELIPAACGATLPALGLRSSAQDPQAVLGALGRALSPLEEWLRLHTYLAGEAPTLADLAAVTALLLPFRYVLDPPARRIWNNVTRWFVTCVRQPEFRAVLGEVVLYSGARPLSHQPGPEAPALPKTAAQLKKEAKKREKLEKFQQKQKIQQQQPPPGEKKPKPEKREKRDPGVITYDLPTPPGEKKDVSGPMPDSYSPRYVEAAWYPWWEQQGFFKPEYGRPNVSAANPRGVFMMCIPPPNVTGSLHLGHALTNAIQDSLTRWHRMRGETTLWNPGCDHAGIATQVVVEKKLWREQGLSRHQLGREAFLQEVWKWKEEKGDRIYHQLKKLGSSLDWDRACFTMDPKLSAAVTEAFVRLHEEGIIYRSTRLVNWSCTLNSAISDIEVDKKELTGRTLLSVPGYKEKVEFGVLVSFAYKVQGSDSDEEVVVATTRIETMLGDVAVAVHPKDTRYQHLKGKNVIHPFLSRSLPIVFDEFVDMDFGTGAVKITPAHDQNDYEVGQRHGLEAISIMDSRGALINVPPPFLGLPRFEARKAVLVALKERGLFRGIEDNPMVVPLCNRSKDVVEPLLRPQWYVRCGEMAQAASAAVTRGDLRILPEAHQRTWHAWMDNIREWCISRQLWWGHRIPAYFVTVSDPAVPPGEDPDGRYWVSGRNEAEAREKAAKEFGVSPDKISLQQDEDVLDTWFSSGLFPLSILGWPNQSEDLSVFYPGTLLETGHDILFFWVARMVMLGLKLTGRLPFREVYLHAIVRDAHGRKMSKSLGNVIDPLDVIYGISLQGLHNQLLNSNLDPSEVEKAKEGQKADFPAGIPECGTDALRFGLCAYMSQGRDINLDVNRILGYRHFCNKLWNATKFALRGLGKGFVPSPTSQPGGHESLVDRWIRSRLTEAVRLSNQGFQAYDFPAVTTAQYSFWLYELCDVYLECLKPVLNGVDQVAAECARQTLYTCLDVGLRLLSPFMPFVTEELFQRLPRRMPQAPPSLCVTPYPEPSECSWKDPEAEAALELALSITRAVRSLRADYNLTRIRPDCFLEVADEATGALASAVSGYVQALASAGVVAVLALGAPAPQGCAVALASDRCSIHLQLQGLVDPARELGKLQAKRVEAQRQAQRLRERRAASGYPVKVPLEVQEADEAKLQQTEAELRKVDEAIALFQKML
B3: EEF1B2 (protein, UniProt P24534 1-225)
chain: MGFGDLKSPAGLQVLNDYLADKSYIEGYVPSQADVAVFEAVSSPPPADLCHALRWYNHIKSYEKEKASLPGVKKALGKYGPADVEDTTGSGATDSKDDDDIDLFGSDDEEESEEAKRLREERLAQYESKKAKKPALVAKSSILLDVKPWDDETDMAKLEECVRSIQADGLVWGSSKLVPVGYGIKKLQIQCVVEDDKVGTDMLEEQITAFEDYVQSMDVAAFNKI

Molecular target: affinity-tagged WT eEF1A (human)
Experiment: affinity purification with mass spectrometry; affinity-tagged WT or methylation-deficient eEF1A overexpressed in HEK-293 cells; co-purifying proteins quantified

binding, binds:
B1
B2
B3
